# The list shows a part of the results.
# B1: il2ra_site2_2erj_normal_mot_5ab283b237ac2ed796690f09fe12d960_0001_000000016_0001_18_34_H_._HHH_b1_05687_0001_0000800035_0000001_0_af2pred_0001_1_af2pred_swapped (protein)
# chain: SSSSDEEIEEIIERLVKEYNLSEEQEKRLRLAAELALEAGNDKNAIRRWLEALARFAAKGSSSSS
# B2: il2ra_site1_3nfp_normal_mot_HHH_b2_00128_000000255_0001_39_54_H_._HHH_b2_00006_0001_0000300009_0000001_1_af2pred_0001_af2pred_1 (protein)
# chain: SSSSDEEVRERVEELLEEAKRITDIREHSELLREALKLARELRDRELLELVERVAREAAKSSSSS
# B3: il2ra_site1_2b5i_sap_10_mot_HHH_b1_05282_000000062_0001_1_18_H_._f0ee23d083d0677da3dfcc8a6cd225b6_0001_af2_0001_0000400018_0000001_0_0001_af2pred_dldesign_0_af2 … (protein)
# chain: SSSSSSDPEAERKKLLDEAYEKANKEQKKELLKLYYLAQKTKDPEKLEKAVELAKEVLSSSSSSS
# B4: il2ra_site1_3nfp_normal_mot_136a1b26558f6d63e39c8b7f62c9aa34_0001_af2_000000044_0001_17_31_H_._HHH_b2_05289_0001_0000500029_0000001_0_af2pred_0001_af2pred (protein)
# chain: SSSSSSDEEEELEELAEKAKKITDPREAQKVVEEMVELVKRSGDPELHEFLREVMRELASSSSSS
# B5: il2ra_site1_3nfp_sap_9_mot_HHH_b1_03479_af2_000000099_0001_1_19_H_._HHH_b2_00795_0001_0000100003_0000001_0_0001_af2pred_0001_af2pred_swapped (protein)
# chain: SSSSSSEAEEEVEELLEEAKRIEDSKEANEVMRRAIKLARELNNEELRELIYKVLEELAKSSSSS
# B6: il2ra_site1_2b5i_normal_mot_HHH_b2_04910_000000118_0001_1_19_H_._HHH_b2_07406_0001_0000200016_0000001_0_af2pred_0001_af2pred_1 (protein)
# chain: SSSSSEEQERLRELLEKANKLDKNGNPEEAREVLEEAEELAEELGDKSARRLIEAALKLLESSSS
# B7: il2ra_site1_3nfp_sap_15_mot_HHH_b2_01582_af2_000000000_0001_1_16_H_._HHH_b2_07153_0001_0000400022_0000001_0_0001 (protein)
# chain: SSSSTIEELRELAELLKELSKTDEEEFERVFEEARKLAEEHGDKVARWLLEQYKRNLKERSSSSS
# B8: il2ra_site1_3nfp_sap_17_mot_HHH_b1_02637_af2_000000013_0001_1_18_H_._HHH_b2_00825_af2_0001_0000400017_0000001_0_0001 (protein)
# chain: SSSSSEAKEEFWRLIRELIRAQKEGDEELAKKLAELLEELAEERNDESALRVVEELLELLRSSSS
# B9: il2ra_site2_3nfp_normal_mot_HHH_b1_05785_af2_000000002_0001_41_57_H_._HHH_b1_00695_af2_0001_0000100002_0000001_0 (protein)
# chain: SSSSDEAEEYLRAAIELAERAAEEDPEIAEKSLELARKLAESLHDEEAKERIEELLEAIEESSSS
# B10: il2ra_site2_3nfp_normal_mot_HHH_b2_07670_af2_000000034_0001_1_17_H_._HHH_b1_07540_af2_0001_0000500026_0000001_0 (protein)
# chain: SSSDEEDLELAIEYALIAARLWGDEEVVKEIEELLERFRKEGDREYTTEVWELAREILEEGSSSS
# B11: il2ra_site1_2b5i_sap_9_mot_HHH_b2_07540_af2_000000089_0001_1_16_H_._HHH_b1_01333_af2_0001_0000100003_0000001_0_0001_af2pred_0001_af2pred (protein)
# chain: SSSSSSEELLELLREADELFKNGNPEEAEKVLERAEELAERNGTKSMLRSVRSMLELLRESSSSS
# B12: il2ra_site2_2erj_sap_27_mot_HHH_b2_01204_af2_000000051_0001_19_34_H_._HHH_b2_01941_af2_0001_0000300007_0000001_0_0001_af2pred_0001_af2pred_swapped (protein)
# chain: SSSSSSDEEEEVERLLEEAKEIKDKREALEILEEASRIASKAGDEELLELVQRVARELSSSSSSS
# B13: il2ra_site1_2b5i_sap_14_mot_HHH_b1_01419_af2_000000080_0001_42_53_H_._ems_3hC_1598_af2_0001_0000100003_0000001_0_0001_af2pred_0001_af2pred (protein)
# chain: SSSSSSQEKAFEWAERFIEQLIEEGDEEAARKAIEELRHLAERSNNPEMRKIVERLEEELSSSSS
# B14: il2ra_site1_2b5i_sap_14_mot_HHH_b1_05017_af2_000000115_0001_1_18_H_._HHH_b2_01703_af2_0001_0000200005_0000001_0_0001_af2pred_0001_af2pred_1 (protein)
# chain: SSSSDEAFHEVLELYRRASRLFQKGDKEEARKLLEEAQELAEEAGDEVAVKDLRRMLELLKSSSS
# B15: il2ra_site2_2erj_normal_mot_8a316d4779eb53efc793250774d75e68_0001_af2_000000043_0001_18_32_H_._HHH_b1_04199_0001_0000200023_0000001_1 (protein)
# chain: SSSSSSEYEERIEELIEEARRVSEEEAEKLLSEAFELAFRNNDVEIASEVIELVAELARASSSSS
# B16: il2ra_site2_2erj_sap_21_mot_2e60acbd11533cd3bad2fa8ba2aa37e0_0001_af2_000000288_0001_35_49_H_._HHH_b1_03230_0001_0000300009_0000001_0_0001_af2pred_dldesign_0_af … (protein)
# chain: SSSSSPEVKALIEETKRLLEKGEVEKAEEVLRKAALLAFAAGDEEQLDELAGLAGEIELAKSSSS
# B17: il2ra_site2_3nfp_sap_26_mot_HHH_b1_06800_000000145_0001_39_52_H_._d0d4bb967d3a74cfb2645cd31ab01004_0001_af2_0001_0000100002_0000001_0_0001 (protein)
# chain: SSSSSEAFRRSFRLVEAMIESLRSRGDEEYLQEIEELLEEAEEKKDPRLLLEAFKLALEAYSSSS
# B18: il2ra_site2_2erj_normal_mot_HHH_b1_01129_af2_000000281_0001_18_33_H_._HHH_b2_07712_0001_0000200009_0000001_0 (protein)
# chain: SSSSSSDEEEVEELLEEAKHITDLREAYRLLNEALRIASESQNEELLELILKVLEELASSSSSSS
# Biological target: il2ra, P01589
# Experiment: yeast display titration
row,Binder,apparent Kd
1,B1,inactive: no binding seen
2,B2,inactive: no binding seen
3,B3,inactive: no binding seen
4,B4,inactive: no binding seen
5,B5,inactive: no binding seen
6,B6,inactive: no binding seen
7,B7,inactive: no binding seen
8,B8,inactive: no binding seen
9,B9,inactive: no binding seen
10,B10,inactive: no binding seen
11,B11,inactive: no binding seen
12,B12,inactive: no binding seen
13,B13,inactive: no binding seen
14,B14,inactive: no binding seen
15,B15,inactive: no binding seen
16,B16,inactive: no binding seen
17,B17,inactive: no binding seen
18,B18,inactive: no binding seen

# Reprinted at random: 2 records from the list.
row,Binder,apparent Kd
8,B8,inactive: no binding seen
18,B18,inactive: no binding seen
